{
  "sequences": {"note": "By UniProt entry, the sequences of proteins in these tests, tags left out. Where a name states a change or a piece, a line headed by the entry shows the natural chain unless it says otherwise.", "UniProt Q06554": "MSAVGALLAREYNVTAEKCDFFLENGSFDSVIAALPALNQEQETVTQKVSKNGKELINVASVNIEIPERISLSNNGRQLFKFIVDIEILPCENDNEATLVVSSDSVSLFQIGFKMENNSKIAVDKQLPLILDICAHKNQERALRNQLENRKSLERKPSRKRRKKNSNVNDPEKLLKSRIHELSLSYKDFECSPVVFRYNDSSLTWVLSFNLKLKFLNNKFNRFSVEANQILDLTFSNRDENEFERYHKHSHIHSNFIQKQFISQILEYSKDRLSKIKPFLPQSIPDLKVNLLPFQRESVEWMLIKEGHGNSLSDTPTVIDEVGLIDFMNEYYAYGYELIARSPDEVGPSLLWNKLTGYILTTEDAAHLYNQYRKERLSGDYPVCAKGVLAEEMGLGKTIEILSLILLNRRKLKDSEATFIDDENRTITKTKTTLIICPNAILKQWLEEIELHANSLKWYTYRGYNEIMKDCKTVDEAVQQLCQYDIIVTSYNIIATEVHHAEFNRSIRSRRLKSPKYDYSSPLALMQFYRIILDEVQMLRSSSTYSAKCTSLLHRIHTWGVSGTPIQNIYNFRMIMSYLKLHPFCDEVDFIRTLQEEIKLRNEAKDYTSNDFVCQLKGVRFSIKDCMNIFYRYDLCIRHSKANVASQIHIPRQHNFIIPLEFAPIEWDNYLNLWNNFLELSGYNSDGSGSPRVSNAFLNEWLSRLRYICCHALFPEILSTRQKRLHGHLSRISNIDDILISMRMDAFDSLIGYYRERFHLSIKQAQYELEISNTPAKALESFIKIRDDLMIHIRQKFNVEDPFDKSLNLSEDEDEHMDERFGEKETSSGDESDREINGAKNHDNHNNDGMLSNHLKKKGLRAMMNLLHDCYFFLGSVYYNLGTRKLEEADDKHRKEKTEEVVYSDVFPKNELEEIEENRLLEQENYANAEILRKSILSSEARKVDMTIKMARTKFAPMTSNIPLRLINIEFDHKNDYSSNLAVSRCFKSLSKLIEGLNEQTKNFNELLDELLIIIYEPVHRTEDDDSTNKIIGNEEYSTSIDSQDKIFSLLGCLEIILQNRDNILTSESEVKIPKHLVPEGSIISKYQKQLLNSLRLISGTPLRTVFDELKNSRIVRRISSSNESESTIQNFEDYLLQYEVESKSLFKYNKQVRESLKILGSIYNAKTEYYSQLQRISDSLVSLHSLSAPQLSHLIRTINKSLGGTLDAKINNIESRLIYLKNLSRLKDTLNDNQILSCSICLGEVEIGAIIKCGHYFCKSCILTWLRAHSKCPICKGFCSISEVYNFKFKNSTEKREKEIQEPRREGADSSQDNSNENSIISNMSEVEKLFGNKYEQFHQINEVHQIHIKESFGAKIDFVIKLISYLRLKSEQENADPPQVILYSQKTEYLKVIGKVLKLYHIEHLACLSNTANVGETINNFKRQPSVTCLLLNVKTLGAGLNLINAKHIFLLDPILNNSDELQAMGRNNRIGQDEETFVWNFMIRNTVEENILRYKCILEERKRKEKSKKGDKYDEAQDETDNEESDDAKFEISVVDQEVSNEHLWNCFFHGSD", "UniProt P25694": "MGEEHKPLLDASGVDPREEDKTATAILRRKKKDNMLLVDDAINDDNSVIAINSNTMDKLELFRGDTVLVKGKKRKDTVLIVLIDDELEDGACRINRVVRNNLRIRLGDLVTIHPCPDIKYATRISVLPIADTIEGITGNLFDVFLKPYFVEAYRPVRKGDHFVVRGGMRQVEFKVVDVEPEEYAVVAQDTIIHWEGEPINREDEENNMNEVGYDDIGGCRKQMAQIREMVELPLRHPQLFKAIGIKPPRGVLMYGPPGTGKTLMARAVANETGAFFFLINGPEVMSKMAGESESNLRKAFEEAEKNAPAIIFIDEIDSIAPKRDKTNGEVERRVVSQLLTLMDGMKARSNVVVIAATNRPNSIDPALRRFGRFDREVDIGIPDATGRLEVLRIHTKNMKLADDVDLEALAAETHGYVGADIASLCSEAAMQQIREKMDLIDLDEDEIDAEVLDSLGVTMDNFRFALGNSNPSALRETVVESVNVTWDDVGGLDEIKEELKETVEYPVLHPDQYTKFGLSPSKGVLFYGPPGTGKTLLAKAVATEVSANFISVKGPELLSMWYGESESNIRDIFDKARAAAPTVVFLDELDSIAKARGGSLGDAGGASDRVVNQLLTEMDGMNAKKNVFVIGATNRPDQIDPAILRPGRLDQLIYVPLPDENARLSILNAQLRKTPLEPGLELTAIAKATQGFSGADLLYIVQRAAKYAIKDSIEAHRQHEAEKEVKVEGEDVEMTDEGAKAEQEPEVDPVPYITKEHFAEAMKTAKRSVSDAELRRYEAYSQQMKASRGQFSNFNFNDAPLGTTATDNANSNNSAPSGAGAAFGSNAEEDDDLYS"},
  "source": "paper PMC3796546",
  "target": "N-terminal 3xHA-tagged wild-type Irc20 (S. cerevisiae) (UniProt Q06554)",
  "assay": "co-IP; yeast crude extract in RNP buffer (0.1 M HEPES pH 7.4, 100 mM NaCl, 0.1% NP-40) on anti-HA agarose beads, 4°C, 90 minutes; HA-Irc20 derivatives precipitated, Cdc48–3xMyc detected by anti-MYC western blot",
  "note": "Results are given in words; binding and its absence hold for the method and conditions named. Binding seen in cells or lysates may run through a third protein. Some entries that bind do so weakly or less than the wild type.",
  "data": [
    {"substance": "cdc48-R369K-3xMYC (from UniProt P25694 1-835)", "values": [
      {"measurement": "binding", "value": "binds"}
    ]}
  ]
}
